Molecules are shown by their SMILES. Structures were worked out from names or drawings and are uncertain.

Chains of the proteins cited; added tags and fusions are not shown. Residues count along the entry.
UniProt P14780, 107-707 limits assumed: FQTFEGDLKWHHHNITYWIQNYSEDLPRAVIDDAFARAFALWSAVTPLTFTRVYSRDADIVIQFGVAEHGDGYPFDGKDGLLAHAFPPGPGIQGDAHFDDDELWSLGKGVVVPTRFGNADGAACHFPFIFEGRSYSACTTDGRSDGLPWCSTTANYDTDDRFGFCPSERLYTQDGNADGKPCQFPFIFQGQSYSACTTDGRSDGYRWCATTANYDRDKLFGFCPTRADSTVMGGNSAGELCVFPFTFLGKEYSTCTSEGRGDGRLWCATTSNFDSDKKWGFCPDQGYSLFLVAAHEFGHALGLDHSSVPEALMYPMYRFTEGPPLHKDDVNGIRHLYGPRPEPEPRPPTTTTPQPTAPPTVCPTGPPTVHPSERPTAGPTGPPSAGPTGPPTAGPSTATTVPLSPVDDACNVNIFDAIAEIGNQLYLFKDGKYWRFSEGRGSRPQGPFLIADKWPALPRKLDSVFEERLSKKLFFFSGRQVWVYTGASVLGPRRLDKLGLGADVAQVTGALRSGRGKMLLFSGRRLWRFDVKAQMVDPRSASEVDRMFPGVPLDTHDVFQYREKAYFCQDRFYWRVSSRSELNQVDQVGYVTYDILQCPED

This assay concerns the target MMP-9 (92 kDa, gelatinase B; type IV collagenase) (Homo sapiens, UniProt P14780). Nature of the assay: Assay of type IV collagenase inhibitors: activated MMP-9 with type IV collagenase activity kit substrate, fluorescent intensity. Format: biochemical. The following applies: inhibition of type IV collagenase (MMP-9), concentration at which percent inhibition reaches 50%.

`CSc1ccc(-c2ccc(S(=O)(=O)N[C@H](Cc3ccccc3)C(=O)O)s2)cc1`: the IC50 (in general, the concentration that inhibits the measured activity by half) came to 0.0395 µM.

Take `O=C(O)[C@@H](Cc1ccccc1)NS(=O)(=O)c1ccc(-c2ccc(F)cc2)s1`: the IC50 worked out at 2.03 µM.

The values above are taken from US6441021B1, “Sulfonated amino acid derivatives and metalloproteinase inhibitors containing the same” (Shionogi & Co., Ltd., priority 1996, dated 2002).
